According to patent publication US20030130169A1, “Methods of treating drug-resistant bacterial infections” (priority 2001, published 2003):
Some results were stated once for a whole list of compounds, not compound by compound. At least one compound was matched to its structure with a doubt left.

System: IncB plasmid pMU2403 encoding β-lactamase
Assay: Assessment of plasmid elimination (master/replica plating)
Type: cell-based, E. coli strain JP4821
Experimental: The anti-plasmid effect of apramycin, paromomycin I and kanamycin B was assessed. In general, plasmid-containing E. coli resistant to ampicillin were cultured using growth media containing subinhibitory (sublethal) amounts of each of these compounds. The bacteria were allowed to reproduce for a defined number of generations, after which the bacteria were plated out onto agar plates containing the tested small molecules. Replicas were then made onto plates containing the tested small molecules and the antibiotic, ampicillin. Colonies that appeared on the master plate, but not the replicas had been rendered sensitive to ampicillin
In particular, E. coli strain JP4821 containing the commercially available IncB plasmid pMU2403, which encodes for β-lactamase, was grown in MM in the presence of 25 μg/mL apramycin for a defined number of generations. Typically, samples of the bacteria were plated out onto LB/Apra^25 plates after 10-12 generations, and replica plates were then made onto LB/Apra^25/Amp^100 plates. Percentage of plasmid lost was calculated by counting the number of colonies successfully replicated and dividing by the total number of colonies on the master plate; the entire plasmid loss assay was performed on two separate occasions. On average, greater than 200 master plate colonies were used for each of these evaluations. […]

In the case of NC[C@H]1O[C@H](O[C@H]2[C@H](O)[C@@H](O[C@H]3O[C@H](CO)[C@@H](O)[C@H](N)[C@H]3O)[C@H](N)C[C@@H]2N)[C@H](N)[C@@H](O)[C@@H]1O [kanamycin B], the plasmid loss (kanamycin B at 10 mg/mL) is reported as 15-30%.
NC[C@@H]1O[C@H](O[C@H]2[C@@H](O)[C@H](O[C@@H]3[C@@H](O)[C@H](N)C[C@H](N)[C@H]3O[C@H]3O[C@H](CO)[C@@H](O)[C@H](O)[C@H]3N)O[C@@H]2CO)[C@H](N)[C@@H](O)[C@@H]1O [paromomycin I] was tested, and the plasmid loss (paromomycin I at 15 mg/mL) was 15-30%.
